Some entries share one result that the patent states for a list of compounds.
Each molecule was assayed on TP53 R213X nonsense mutation (assay: Dual reporter (lacZ/F-luc, pAC99) stop codon readthrough quantification, R213X, NIH3T3 cells). Conditions: 24 hours, molecules 50 μM, R213X dual reporter (FIG. 1B).
Format: cell-based, mouse
Excerpt: Complementary oligonucleotides corresponding to TP53 R213X nonsense mutations and 9 nucleotides on both sides are ligated into the pAC99 dual reporter plasmid, as previously described (Premature stop codons involved in muscular dystrophies show a broad spectrum of readthrough efficiencies in response to gentamicin treatment, Bidou et al, Gene Therapy 1 Apr. 2004, 11(7):619-627). This dual reporter is used to quantify stop-codon readthrough through the measurement of luciferase and beta-galactosidase (internal calibration) activities, as previously described (Stahl et al, Versatile vectors to study recoding: conservation of rules between yeast and mammalian cells. Nucleic Acids Res 1995; 23:1557-60). Readthrough levels for nonsense mutations were analysed in the presence or absence of tested molecules. Cells were seeded in a 6-well plate. The next day, cells are transfected with the reporter plasmid in the presence of JetPei reagent (Invitrogen). The following day, they are rinsed with fresh medium, with or without readthrough inducers. Cells were harvested 24 hours later, with trypsin-EDTA (Invitrogen), lysed with Glo lysis buffer (Promega) and beta-galactosidase and luciferase activities were assayed as previously described (Stahl et al, Versatile vectors to study recoding: conservation of rules between yeast and mammalian cells. Nucleic Acids Res 1995; 23:1557-60). Readthrough efficiency was estimated by calculating the ratio of luciferase activity to beta-galactosidase activity obtained with the test construct, with normalisation against an in-frame control construct. At least five independent transfection experiments were performed for each assay.

For Cc1nc(NC(=N)N)nc2ccccc12 [TLN68], which “factor of readthrough induction” value is on record?
Its value is “greater than 4”.

COc1cc(C(=O)OCCCN2CCCN(CCCOC(=O)c3cc(OC)c(OC)c(OC)c3)CC2)cc(OC)c1OC.Cl.Cl [TLN236] was tested. Which “factor of readthrough induction” value did it give?
The value was “greater than 4”.

Which “factor of readthrough induction” value does the source give for CCN(CC)Cc1cc(Nc2ccnc3cc(Cl)ccc23)ccc1O [TLN309, Amodiaquine] here?
Its value is “greater than 4”.

With C[C@H]1c2cccc(O)c2C(=O)C2=C(O)[C@]3(O)C(=O)C(C(N)=O)=C(O)[C@@H](N(C)C)[C@@H]3[C@@H](O)[C@@H]21.Cl [TLN1399] as the molecule, how does the “factor of readthrough induction” value read?
The value was “greater than 4”.

Source: patent US20230183187A1, “QUINAZOLINE COMPOUNDS AS INHIBITORS OF PREMATURE TERMINATION CODONS” (CENTRE NATIONAL DE LA RECHERCHE SCIENTIFIQUE, priority 2020, published 2023)
